Experimental data: PubChem BioAssay AID1224826 (NIAID, 2016)
The deposit covers about 17,000 reagents; below is a part drawn at random. About 1,110 of all reagents (6.6%) count as active. 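Active means lowered or raised reporter signal; replicate intensities are raw and not normalised per plate.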 Unmarked entries are inactive. Reagents against one gene are numbered here. Further read-outs or replicates are left out here.

Aim: 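Knock-downs that raise or lower Tnf reporter signal after endotoxin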 (primary screen)
Cell system: RAW264.7 G9 macrophages from mouse bearing reporters for p65 (GFP) and the Tnf promoter (mCherry)
Knock-down reagent: siRNA pool against mouse genes, 100 nM
Duration: 16 h of LPS stimulation, after 2 days of siRNA transfection
Conditions: bacterial lipopolysaccharide (Salmonella minnesota R595), 10 ng/ml
Measurement: 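Nuclear mCherry signal of the Tnf promoter reporter measured by imaging after background removal, scaled to each plate median and turned into robust z-scores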
Reading the numbers: Tnf reporter robust z-score: higher = stronger Tnf promoter reporter signal after LPS
Call rule: 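Called active when robust z-score is at most -1.3, matching the median of the Tlr4 knock-down control, or over 3; control wells and wells with under 50 cells never active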
Calls: active = Tnf reporter clearly lowered or raised; inactive = no clear change in Tnf reporter

target gene,pool no.,Tnf reporter robust z-score,fewer than 50 cells in well
Yes1,1,1.12,enough cells in well
Tfeb,1,1.46,enough cells in well
Psd3,1,-0.97,enough cells in well
Psd3,2,0.47,enough cells in well
Pip4k2c,1,-1.09,enough cells in well
Or51g2,1,0.23,enough cells in well
Cdh11,1,0.26,enough cells in well
Marveld3,1,2.04,enough cells in well
Blvrb,1,-0.18,enough cells in well
Vars2,1,0.76,enough cells in well
Gdf7,1,-0.23,enough cells in well
Gap43,1,-1.18,enough cells in well
Hoxd9,1,0.47,enough cells in well
Cgb (retired record),1,0.8,enough cells in well
Gpr183,1,0.04,enough cells in well
Pou2f1,1,0.72,enough cells in well
Rpl23,1,-0.37,enough cells in well
Gldn,1,2.43,enough cells in well
Tekt2,1,0.04,enough cells in well
Dynlt4,1,,fewer than 50 cells per well; well left out of calls
Galr3,1,-0.48,enough cells in well
Rnf187,1,-0.8,enough cells in well
Nat2,1,-1.14,enough cells in well
Crh,1,0.98,enough cells in well
Crls1,1,2.59,enough cells in well
Lin54,1,0.52,enough cells in well
Calu,1,1.53,enough cells in well
Ostn,1,1.16,enough cells in well
Actl11,1,-0.53,enough cells in well
Zcchc9,1,1.86,enough cells in well
Fosl1,1,0.5,enough cells in well
F11,1,0.43,enough cells in well
Rbbp8,1,0.36,enough cells in well
Fancl,1,-0.42,enough cells in well
Fam91a1,1,-1.55 (active),enough cells in well
Kremen2,1,0.55,enough cells in well
Castor2,1,-0.53,enough cells in well
Srsf1,1,,fewer than 50 cells per well; well left out of calls
Akt2,1,-0.63,enough cells in well
Fam3a,1,,fewer than 50 cells per well; well left out of calls

2 entries from above, sorted by “Tnf reporter robust z-score”, highest first:
target gene,pool no.,Tnf reporter robust z-score,fewer than 50 cells in well
Psd3,2,0.47,enough cells in well
Psd3,1,-0.97,enough cells in well
